The text below walks through data of paper PMC7819943, “Rice protein-binding microarrays: a tool to detect cis-acting elements near promoter regions in rice”.

Amino acid sequences for entries named in this document (tags omitted).
UniProt Q0JBA9, entry or part of it: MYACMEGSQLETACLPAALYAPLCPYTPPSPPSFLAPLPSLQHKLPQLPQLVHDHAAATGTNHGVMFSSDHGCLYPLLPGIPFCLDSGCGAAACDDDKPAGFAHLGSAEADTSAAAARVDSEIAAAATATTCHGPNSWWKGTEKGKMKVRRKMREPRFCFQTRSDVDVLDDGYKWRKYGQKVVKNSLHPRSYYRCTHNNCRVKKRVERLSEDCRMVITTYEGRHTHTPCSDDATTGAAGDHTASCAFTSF

Some of the results follow.

This experiment addresses OsWRKY34 (Oryza sativa, UniProt Q0JBA9 1-250). The experiment can be described thus: protein-binding microarray (RPBM); PBS, 2% BSA, 51.3 ng/ul salmon testes DNA, 50 uM zinc acetate, 200 nM TF, 25 C, 1 h; high values mean tight binding. To be noted: protein: recombinant; tags: N-terminal polyhistidine and DsRed monomer fusion (pET32a); label: CyDye5-dUTP incorporated in the synthesized complementary strand; 3' TTTTT single-stranded linker to array surface; dsDNA, one strand shown. The gist of the method:
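The binding signal is fluorescence intensity per array feature (arbitrary units). Readings came from an Axon 4000B scanner after a washed, 2% BSA-blocked, double-stranded custom Agilent array had been incubated for 1 h at 25 °C with 200 nM protein and 50 µM zinc acetate. The protein was a Ni–NTA-purified transcription factor fused N-terminally to polyhistidine and DsRed, expressed in E. coli BL21-CodonPlus.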
Take “CCAGTTTCAGTTTAAGCTCTTAAACCCTCGCCGGGAGATTCGGAGTCACCTAGTGCAG”: the binding signal was 8710 fluorescence intensity (a.u.).
As to “GGAATTTTGAGTTTTTACTTGCAACGTTTGACCACTTGTCCGGAGTCACCTAGTGCAG”, the binding signal was 11600 fluorescence intensity (a.u.).
Consider “CCGTGGTGGTACGCGCGCGCTGCGTACGTTTTTTTTTCTTCGGAGTCACCTAGTGCAG”, for which the binding signal was 9450 fluorescence intensity (a.u.).
With “CCCCGACTGCCCCGACACCGGCTGCCTCGTCGACCTCAACCGGAGTCACCTAGTGCAG” the figure was 9000 fluorescence intensity (a.u.); with “GGTTGCAAAATTCTCCTCGGAAACCGCATCTCACCGTCCGCGGAGTCACCTAGTGCAG”, 9340 fluorescence intensity (a.u.); with “CTTTTTCATCGTATCCAAACTTTTCTACACACACAAACTTCGGAGTCACCTAGTGCAG”, 9170 fluorescence intensity (a.u.).
Turning to “GCCGTCCATGAGCTCTGTTTTTTATCCTAACACCCCTCTGCGGAGTCACCTAGTGCAG”, the binding signal is 8490 fluorescence intensity (a.u.).
The same measure for “GTATCCATATATGTTCATCTCGTTTTTGTGTCATAACCGTCGGAGTCACCTAGTGCAG”: 9750 fluorescence intensity (a.u.); for “AAACCGGACCAATCTACGTCACTCACCTACTACCACAAGACGGAGTCACCTAGTGCAG”: 8750 fluorescence intensity (a.u.); for “TCAACTAATCAATCACATGGTAATGACTTTTTCTTTTGTTCGGAGTCACCTAGTGCAG”: 9290 fluorescence intensity (a.u.).
With “GATGTGATGTAATTATTGTGTATTAAGGTTTTCGATACAACGGAGTCACCTAGTGCAG” the figure was 8570 fluorescence intensity (a.u.).
As to “GCGTGGTATTGCCTGCTGCGTGTGCTTCACTTCCCCGAATCGGAGTCACCTAGTGCAG”, the binding signal was 8070 fluorescence intensity (a.u.).
Take “GGCCTTCTTTTCTGATTCCGAATTTTGTATATTCGTTTGCCGGAGTCACCTAGTGCAG”: the binding signal is 8920 fluorescence intensity (a.u.).
As to “ATCGCCATCACCGCCCATCGCACCAAATCCTGTGTATCACCGGAGTCACCTAGTGCAG”, the binding signal was 11400 fluorescence intensity (a.u.).
For the sequence “TTCTCCGTGTTAATATCACTTACGTCAAGGACCTATTTGTCGGAGTCACCTAGTGCAG”, the binding signal is 8750 fluorescence intensity (a.u.).
For “ACGGCTTTCCTACCCACCCACTCCACTCCACTCCACTCCCCGGAGTCACCTAGTGCAG”, the binding signal is 9010 fluorescence intensity (a.u.).
Take “TCGCTAGTAGCTGTTGCTGCCTCTCCACCGCGTCCCTCTCCGGAGTCACCTAGTGCAG”: the binding signal was 11000 fluorescence intensity (a.u.).
Take “TCGTGTCACTGTGGCTCACTATTCACCACCACTATTTTTTCGGAGTCACCTAGTGCAG”: the binding signal is 8720 fluorescence intensity (a.u.).
The same measure for “AGCACCAGTCCCTACTTTGTTTAGCAGCTTCTGGACATCACGGAGTCACCTAGTGCAG”: 11800 fluorescence intensity (a.u.); for “GTGGCCTTGTTCTATATGTTATTTTGCTCCTAGCGATGTACGGAGTCACCTAGTGCAG”: 8430 fluorescence intensity (a.u.); for “CGCTCTCGCGCCGCCACCACCTCACCCCGCGCCCCGCCGCCGGAGTCACCTAGTGCAG”: 8150 fluorescence intensity (a.u.).
On to “TGTTCGATTCCCTCCCTTGTATGCTTCTTTTTTTTTTCCCCGGAGTCACCTAGTGCAG”, for which the binding signal is 8710 fluorescence intensity (a.u.).
Consider “CTCCTCCGGCCTCTTCCCGTAGCGCGCCGGCCGCCGCCCCCGGAGTCACCTAGTGCAG”, for which the binding signal is 8030 fluorescence intensity (a.u.).
The same measure for “CACCACGTTCGTTCCGGACGTCCACGCCTTACCAACCTTCCGGAGTCACCTAGTGCAG”: 8090 fluorescence intensity (a.u.); for “GCAAATCTCACCACTCGCCACCACCTCCACTTCGCCGCCGCGGAGTCACCTAGTGCAG”: 9370 fluorescence intensity (a.u.); for “ATGGCTCGGTGGTGCACTATTTTTTTTTTAACTTAATTTGCGGAGTCACCTAGTGCAG”: 12100 fluorescence intensity (a.u.).
Regarding “GCTGCTTTCCTTTCTTCTCTTCCAGTCAATCAAACGCGTCCGGAGTCACCTAGTGCAG”, the binding signal was 8800 fluorescence intensity (a.u.).
The same measure for “TGTTGGTGAATGGTAATTTTTTGGGTTGATATGTTGCTGACGGAGTCACCTAGTGCAG”: 9580 fluorescence intensity (a.u.); for “GCATCCCGGTCCGCCGTCGCATCCGCCATCGTGCTGAGCACGGAGTCACCTAGTGCAG”: 8080 fluorescence intensity (a.u.).
With “GGTGATTGTGGTTATGCCAGTTTAAATATTCTCCACTGCTCGGAGTCACCTAGTGCAG”, the binding signal was 8090 fluorescence intensity (a.u.).
“CTTAACTCTGCCAAACATGCCCATAGTTAGCTTCATTATTCGGAGTCACCTAGTGCAG”: the binding signal was 8070 fluorescence intensity (a.u.).
The same measure for “ACCGACTTACACAATCTCTCCCACTGCCATGCGGGCCCACCGGAGTCACCTAGTGCAG”: 9000 fluorescence intensity (a.u.); for “TTTTCTGTCCAAGTTGGCCGCTTTGGCAACTACTCCTTTCCGGAGTCACCTAGTGCAG”: 8160 fluorescence intensity (a.u.).
On to “CCAGCCTCGCCACCTCGCCCATGCTTATCGCTCTCTTCCCCGGAGTCACCTAGTGCAG”, for which the binding signal was 9200 fluorescence intensity (a.u.).
The same measure for “TCCTCCACTCCACCACCCACCCGCCCGGCCGAACCAGCCACGGAGTCACCTAGTGCAG”: 8070 fluorescence intensity (a.u.); for “CACTGATCGTCCTTGACTTATCTATTTGTATTAAACTTTTCGGAGTCACCTAGTGCAG”: 8540 fluorescence intensity (a.u.).
With “GAACGTGTCATCCCACCTATCCTACATATTTAAAGGCCACCGGAGTCACCTAGTGCAG”, the binding signal is 9100 fluorescence intensity (a.u.).
With “TGTCTTTCTATTATCCCTTATATATACTCTTGTAAGCCGTCGGAGTCACCTAGTGCAG” the figure was 8840 fluorescence intensity (a.u.); with “TCCATTGTTTTAGCTATATATGCTCTTGCTGCAAGTTACCCGGAGTCACCTAGTGCAG”, 8540 fluorescence intensity (a.u.); with “ATATTTTTTGTTTGCTAATTTCAGATTATTGATTCAGTATCGGAGTCACCTAGTGCAG”, 8110 fluorescence intensity (a.u.).
As for “ACGTCGCTGTAGCTTCTCTCCATCCATCCATCGAAATCTCCGGAGTCACCTAGTGCAG”, the binding signal was 8820 fluorescence intensity (a.u.).
As for “AATTGTTTTATGCCAGAGCCATAATTTTATCCTTTCTTTTCGGAGTCACCTAGTGCAG”, the binding signal was 9000 fluorescence intensity (a.u.).
